In paper doi:10.1101/2022.02.06.479262:

T1: IFT25-HA-GFP (C. reinhardtii) (UniProt B8LIX8)
T1 sequence: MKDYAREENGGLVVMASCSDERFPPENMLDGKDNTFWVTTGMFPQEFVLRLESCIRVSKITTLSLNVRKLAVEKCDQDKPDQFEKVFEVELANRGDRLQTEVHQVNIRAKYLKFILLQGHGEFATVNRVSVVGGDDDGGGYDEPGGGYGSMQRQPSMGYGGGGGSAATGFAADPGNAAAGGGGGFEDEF

B1: IFT43 (protein, UniProt A8HYP5 1-272)
chain: MDDDAPKAAPKAGRRAARTANTWGDDSAAPPEPQKGGFGLDSGFGGGGGSPRGNAFGAEDSAPPKHVASTNFAPSGDDEPAPAPSRQRTGDASGDRPSRGGAPPSRPPPAEILGEDSKKFVGVSRRKQEQLARGDDEVSRKNLKYETLTAGVDGIMEIPELEEEGREDLSNIVAEAPKVRTNKVQGMEELEEDMHYKLPAMDDRDIDLSLLTAVLCSSEQVAEAEDPWDPDIVLTEVASAINAEREKAEGGEAPDDMGGMRDEQGMPMPIKL

Key:
Assay in all cases: co-IP
[1] = target: T1, IFT25-HA-GFP (C. reinhardtii)
[2] = target: IFT27-HA-GFP (C. reinhardtii)
[3] = target: IFT27^S30N-HA-GFP (C. reinhardtii)
[4] = target: IFT27^S79L-HA-GFP (C. reinhardtii)

Molecule | binding [1] | binding [2] | binding [3] | binding [4]
IFT70 (C. reinhardtii (endogenous in cilia)) | binds | – | – | –
IFT38 (C. reinhardtii (endogenous in cilia)) | binds | – | – | –
B1 | – | binds | binds | binds

These are yes or no findings as the source states them, for the method shown. Binding seen in cells or lysates may run through a third protein. Binding calls can cover weak binding; strength is not graded here. For some assays here: Tags and fused reporters may be left off the sequences shown.
